Measured values reported in the supplement of paper PMC12067093, “Discovery and optimisation of a covalent ligand for TRIM25 and its application to targeted protein ubiquitination” (Chemical Science, 2025).
The list shows a part of the results.

Amino acid sequences for entries named in this document (tags omitted). A change or cut given only in a name is not applied to a line headed by its entry.
UniProt Q13042, whole entry, looked up: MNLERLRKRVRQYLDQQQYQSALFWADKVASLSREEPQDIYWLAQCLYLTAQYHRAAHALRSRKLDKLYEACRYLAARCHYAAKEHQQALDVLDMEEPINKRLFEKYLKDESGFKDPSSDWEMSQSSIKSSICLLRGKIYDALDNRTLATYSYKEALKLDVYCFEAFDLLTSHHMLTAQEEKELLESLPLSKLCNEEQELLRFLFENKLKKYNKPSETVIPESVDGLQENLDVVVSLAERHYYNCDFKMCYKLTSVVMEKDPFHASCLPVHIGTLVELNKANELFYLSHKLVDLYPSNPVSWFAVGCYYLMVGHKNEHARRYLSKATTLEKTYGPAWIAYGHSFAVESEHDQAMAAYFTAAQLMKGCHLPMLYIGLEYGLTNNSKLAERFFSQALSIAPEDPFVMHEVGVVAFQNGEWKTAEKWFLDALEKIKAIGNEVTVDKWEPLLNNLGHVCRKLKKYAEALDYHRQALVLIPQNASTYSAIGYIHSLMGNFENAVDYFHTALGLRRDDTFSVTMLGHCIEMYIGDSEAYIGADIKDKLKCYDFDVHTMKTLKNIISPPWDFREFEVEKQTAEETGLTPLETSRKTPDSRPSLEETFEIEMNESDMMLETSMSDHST
UniProt P60953, whole entry, looked up: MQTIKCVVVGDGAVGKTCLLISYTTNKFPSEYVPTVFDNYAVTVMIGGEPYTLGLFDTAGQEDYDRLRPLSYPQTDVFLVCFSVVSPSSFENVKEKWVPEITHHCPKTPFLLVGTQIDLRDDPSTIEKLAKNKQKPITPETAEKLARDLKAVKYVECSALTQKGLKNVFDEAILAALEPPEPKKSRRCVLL
UniProt Q9NYV4, whole entry, looked up: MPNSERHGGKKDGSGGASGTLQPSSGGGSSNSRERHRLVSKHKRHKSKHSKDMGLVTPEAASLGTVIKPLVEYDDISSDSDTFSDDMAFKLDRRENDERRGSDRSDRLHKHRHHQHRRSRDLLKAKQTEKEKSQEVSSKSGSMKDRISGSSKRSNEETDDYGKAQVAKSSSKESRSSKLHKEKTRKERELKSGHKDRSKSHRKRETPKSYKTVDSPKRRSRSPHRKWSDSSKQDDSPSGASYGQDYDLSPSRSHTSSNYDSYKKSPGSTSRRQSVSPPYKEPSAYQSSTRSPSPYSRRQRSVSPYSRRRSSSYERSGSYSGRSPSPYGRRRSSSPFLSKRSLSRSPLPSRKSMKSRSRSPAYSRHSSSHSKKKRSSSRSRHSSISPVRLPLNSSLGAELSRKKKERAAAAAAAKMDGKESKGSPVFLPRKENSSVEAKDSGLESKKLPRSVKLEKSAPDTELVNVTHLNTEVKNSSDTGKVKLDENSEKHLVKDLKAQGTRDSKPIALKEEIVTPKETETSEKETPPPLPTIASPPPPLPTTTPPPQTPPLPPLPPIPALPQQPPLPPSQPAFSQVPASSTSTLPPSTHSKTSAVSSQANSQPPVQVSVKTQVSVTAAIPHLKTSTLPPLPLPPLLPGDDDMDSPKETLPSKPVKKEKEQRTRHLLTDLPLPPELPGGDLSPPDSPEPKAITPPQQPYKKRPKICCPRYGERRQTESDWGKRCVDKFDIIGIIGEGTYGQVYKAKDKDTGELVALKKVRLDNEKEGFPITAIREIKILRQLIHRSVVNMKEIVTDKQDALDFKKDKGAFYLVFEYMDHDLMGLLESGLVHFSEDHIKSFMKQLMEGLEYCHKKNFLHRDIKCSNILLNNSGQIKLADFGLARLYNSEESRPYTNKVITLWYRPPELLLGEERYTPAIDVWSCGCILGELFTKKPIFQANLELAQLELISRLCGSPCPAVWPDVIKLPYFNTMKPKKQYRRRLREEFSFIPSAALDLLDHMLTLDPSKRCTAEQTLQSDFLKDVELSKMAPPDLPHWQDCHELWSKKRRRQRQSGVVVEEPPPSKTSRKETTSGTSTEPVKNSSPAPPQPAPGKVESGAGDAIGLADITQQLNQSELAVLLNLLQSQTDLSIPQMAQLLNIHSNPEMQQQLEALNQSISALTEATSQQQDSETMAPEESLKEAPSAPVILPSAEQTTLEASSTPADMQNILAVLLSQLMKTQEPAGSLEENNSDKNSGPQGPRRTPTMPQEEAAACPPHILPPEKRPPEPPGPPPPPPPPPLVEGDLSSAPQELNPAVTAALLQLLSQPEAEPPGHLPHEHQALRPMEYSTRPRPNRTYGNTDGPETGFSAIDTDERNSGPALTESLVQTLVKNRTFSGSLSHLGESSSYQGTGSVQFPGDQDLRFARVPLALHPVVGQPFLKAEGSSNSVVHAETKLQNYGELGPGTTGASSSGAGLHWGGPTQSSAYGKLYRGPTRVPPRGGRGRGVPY
UniProt P50991: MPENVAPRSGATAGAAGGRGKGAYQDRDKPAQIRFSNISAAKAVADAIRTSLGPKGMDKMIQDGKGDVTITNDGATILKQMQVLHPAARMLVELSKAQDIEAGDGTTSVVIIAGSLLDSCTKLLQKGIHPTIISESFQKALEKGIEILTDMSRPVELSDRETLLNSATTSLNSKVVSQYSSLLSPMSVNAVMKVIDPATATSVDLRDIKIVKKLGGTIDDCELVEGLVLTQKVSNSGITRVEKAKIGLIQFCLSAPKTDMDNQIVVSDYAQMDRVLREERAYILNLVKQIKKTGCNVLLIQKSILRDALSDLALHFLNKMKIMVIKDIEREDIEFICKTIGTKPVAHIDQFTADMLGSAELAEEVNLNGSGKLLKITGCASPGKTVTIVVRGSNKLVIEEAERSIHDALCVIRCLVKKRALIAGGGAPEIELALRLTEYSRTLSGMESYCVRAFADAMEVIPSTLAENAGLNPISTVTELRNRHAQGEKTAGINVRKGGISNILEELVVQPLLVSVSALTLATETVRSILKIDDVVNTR
UniProt Q7Z7K6: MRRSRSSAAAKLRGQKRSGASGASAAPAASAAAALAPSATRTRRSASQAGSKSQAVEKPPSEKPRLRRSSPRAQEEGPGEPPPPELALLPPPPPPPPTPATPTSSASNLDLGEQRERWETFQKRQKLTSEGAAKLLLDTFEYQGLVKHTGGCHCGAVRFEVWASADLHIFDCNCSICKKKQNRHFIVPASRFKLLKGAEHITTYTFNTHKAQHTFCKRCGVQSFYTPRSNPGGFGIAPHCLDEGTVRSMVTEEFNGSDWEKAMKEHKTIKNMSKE
UniProt Q00535, whole entry, looked up: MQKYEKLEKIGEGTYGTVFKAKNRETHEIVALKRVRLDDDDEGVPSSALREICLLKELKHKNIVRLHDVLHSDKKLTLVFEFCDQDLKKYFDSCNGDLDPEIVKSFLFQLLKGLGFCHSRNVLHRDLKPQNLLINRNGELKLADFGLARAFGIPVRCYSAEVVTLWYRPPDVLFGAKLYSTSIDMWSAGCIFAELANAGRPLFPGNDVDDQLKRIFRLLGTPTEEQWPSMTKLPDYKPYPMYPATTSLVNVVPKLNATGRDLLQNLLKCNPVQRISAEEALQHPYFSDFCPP
UniProt Q5VT06: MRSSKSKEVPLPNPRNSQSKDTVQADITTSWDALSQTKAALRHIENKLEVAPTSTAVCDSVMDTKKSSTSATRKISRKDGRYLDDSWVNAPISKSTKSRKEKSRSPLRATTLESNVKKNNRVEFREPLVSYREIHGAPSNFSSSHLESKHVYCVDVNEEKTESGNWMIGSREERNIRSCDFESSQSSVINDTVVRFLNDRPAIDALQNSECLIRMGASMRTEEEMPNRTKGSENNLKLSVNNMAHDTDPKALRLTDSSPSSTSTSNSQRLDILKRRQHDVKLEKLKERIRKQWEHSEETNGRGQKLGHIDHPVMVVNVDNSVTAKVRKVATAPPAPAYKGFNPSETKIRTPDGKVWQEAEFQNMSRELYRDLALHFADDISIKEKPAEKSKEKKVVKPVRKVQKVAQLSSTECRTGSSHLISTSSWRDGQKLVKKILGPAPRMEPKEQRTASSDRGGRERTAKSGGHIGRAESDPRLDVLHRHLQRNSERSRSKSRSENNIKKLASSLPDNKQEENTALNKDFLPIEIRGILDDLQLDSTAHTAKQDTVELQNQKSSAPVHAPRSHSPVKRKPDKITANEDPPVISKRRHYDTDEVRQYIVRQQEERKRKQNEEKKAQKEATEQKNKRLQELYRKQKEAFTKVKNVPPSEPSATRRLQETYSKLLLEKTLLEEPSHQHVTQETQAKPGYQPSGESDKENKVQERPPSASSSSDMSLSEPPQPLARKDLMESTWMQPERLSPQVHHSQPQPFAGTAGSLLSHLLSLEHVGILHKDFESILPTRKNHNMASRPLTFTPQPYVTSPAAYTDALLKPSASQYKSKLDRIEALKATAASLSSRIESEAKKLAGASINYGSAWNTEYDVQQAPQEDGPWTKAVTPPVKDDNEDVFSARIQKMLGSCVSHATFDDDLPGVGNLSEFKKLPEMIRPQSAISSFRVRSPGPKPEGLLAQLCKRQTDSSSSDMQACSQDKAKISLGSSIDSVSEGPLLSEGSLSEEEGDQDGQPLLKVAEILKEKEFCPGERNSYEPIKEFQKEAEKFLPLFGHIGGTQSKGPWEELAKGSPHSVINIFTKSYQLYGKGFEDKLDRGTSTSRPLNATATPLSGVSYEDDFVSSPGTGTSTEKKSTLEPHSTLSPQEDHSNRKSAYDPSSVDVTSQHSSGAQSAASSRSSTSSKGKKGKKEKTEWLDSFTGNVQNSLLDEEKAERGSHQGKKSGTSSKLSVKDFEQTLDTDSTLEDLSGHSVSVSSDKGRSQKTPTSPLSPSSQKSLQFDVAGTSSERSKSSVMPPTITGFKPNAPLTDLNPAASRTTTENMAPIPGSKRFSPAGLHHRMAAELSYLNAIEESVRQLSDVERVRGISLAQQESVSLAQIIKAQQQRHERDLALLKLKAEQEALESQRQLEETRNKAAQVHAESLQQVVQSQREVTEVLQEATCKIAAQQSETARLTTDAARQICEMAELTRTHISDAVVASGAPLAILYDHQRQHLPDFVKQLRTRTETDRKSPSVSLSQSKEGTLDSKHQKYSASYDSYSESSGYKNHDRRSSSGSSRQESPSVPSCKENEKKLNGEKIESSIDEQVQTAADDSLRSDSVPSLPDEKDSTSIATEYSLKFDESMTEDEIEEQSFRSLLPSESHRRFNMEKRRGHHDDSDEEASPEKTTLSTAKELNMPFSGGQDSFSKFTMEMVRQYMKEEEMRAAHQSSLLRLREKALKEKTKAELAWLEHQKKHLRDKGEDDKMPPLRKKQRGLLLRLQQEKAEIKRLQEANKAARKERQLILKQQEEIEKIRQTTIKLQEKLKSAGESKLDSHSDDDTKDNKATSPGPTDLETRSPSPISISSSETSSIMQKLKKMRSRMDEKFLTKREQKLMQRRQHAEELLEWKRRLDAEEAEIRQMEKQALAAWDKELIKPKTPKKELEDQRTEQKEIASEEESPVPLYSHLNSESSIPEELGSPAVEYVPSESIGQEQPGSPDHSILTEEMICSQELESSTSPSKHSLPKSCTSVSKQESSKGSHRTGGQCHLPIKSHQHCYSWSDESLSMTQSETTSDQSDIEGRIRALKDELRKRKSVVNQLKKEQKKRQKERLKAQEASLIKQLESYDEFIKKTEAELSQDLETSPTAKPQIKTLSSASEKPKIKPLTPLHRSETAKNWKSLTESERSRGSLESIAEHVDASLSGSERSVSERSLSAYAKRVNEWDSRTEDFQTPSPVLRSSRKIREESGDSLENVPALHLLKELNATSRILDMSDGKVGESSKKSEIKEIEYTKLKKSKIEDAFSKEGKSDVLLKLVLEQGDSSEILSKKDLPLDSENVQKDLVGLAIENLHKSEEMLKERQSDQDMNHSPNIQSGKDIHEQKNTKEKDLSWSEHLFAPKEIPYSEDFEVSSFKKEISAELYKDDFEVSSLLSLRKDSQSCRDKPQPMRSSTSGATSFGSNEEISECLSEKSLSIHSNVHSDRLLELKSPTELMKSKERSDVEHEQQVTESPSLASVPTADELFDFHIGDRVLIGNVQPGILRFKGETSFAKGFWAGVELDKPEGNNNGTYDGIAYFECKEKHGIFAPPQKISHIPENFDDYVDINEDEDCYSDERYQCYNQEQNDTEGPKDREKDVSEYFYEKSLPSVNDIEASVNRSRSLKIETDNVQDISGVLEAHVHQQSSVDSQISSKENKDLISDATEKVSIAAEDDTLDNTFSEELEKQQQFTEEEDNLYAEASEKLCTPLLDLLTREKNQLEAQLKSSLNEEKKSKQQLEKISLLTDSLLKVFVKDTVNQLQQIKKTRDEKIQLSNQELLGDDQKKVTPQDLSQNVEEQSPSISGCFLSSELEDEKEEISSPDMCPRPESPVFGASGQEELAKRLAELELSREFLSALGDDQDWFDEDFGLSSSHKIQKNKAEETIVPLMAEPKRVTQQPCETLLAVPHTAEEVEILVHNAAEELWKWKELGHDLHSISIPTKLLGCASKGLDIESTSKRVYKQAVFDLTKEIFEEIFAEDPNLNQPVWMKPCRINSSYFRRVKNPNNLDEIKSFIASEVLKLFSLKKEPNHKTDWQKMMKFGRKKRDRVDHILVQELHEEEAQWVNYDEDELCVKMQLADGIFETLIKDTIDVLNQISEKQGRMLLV

These targets were tested with CC1Cc2ccccc2N1C(=O)C1CCCN(C1)C(=O)CCl (mixture of isomers) [TRIM25 ligand 11 (diastereomer mixture)] (assay: probe-labelled cysteine peptide fold change vs DMSO (competition) (log2 fold change); higher = less target engagement (more negative = stronger competition)). Conditions: 10 µM; THP-1; incubation time: 4 h.
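Also: competitive chemoproteomic profiling in live THP-1 cells with an iodoacetamide desthiobiotin (IA-DTB) probe, comparing probe-labelled peptide intensities in compound-treated cells against DMSO-treated controls.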

In order of falling “probe-labelled cysteine peptide fold change” value:
1. CDC16_Q13042_163_LDVYCFEAFDLLTSHHMLTAQEEK (UniProt Q13042)  0.157
2. CD70_P32970_151_LSFHQGCTIASQR (UniProt P32970)  0.0737
3. CDC42_P60953_157_YVECSALTQK (UniProt P60953)  0.0184
4. CDK12_Q9NYV4_1009_CTAEQTLQSDFLK (UniProt Q9NYV4)  -0.0309
5. CENPF_P49454_752_CYQDLHAEYESLRDLLK (UniProt P49454)  -0.0592

Same assay, conditions: 50 µM; THP-1; incubation time: 4 h

In order of falling “probe-labelled cysteine peptide fold change” value:
1. CENPJ_Q9HC77_634_TNPADPISHCNR (UniProt Q9HC77)  0.296
2. CCT4_P50991_295_TGCNVLLIQK (UniProt P50991)  0.255
3. CDPF1_Q6NVV7_7_ASHVECR (UniProt Q6NVV7)  0.247
4. CDC23_Q9UJX2_109_AAHFLHGCNSK (UniProt Q9UJX2)  0.238
5. CDR2_Q01850_432_EIFSCIK (UniProt Q01850)  0.237
6. CENPV_Q7Z7K6_152+154_HTGGCHCGAVR (UniProt Q7Z7K6)  0.212
7. CDK5RAP3_Q96JB5_68_INAAIQDMPESEEIAQLLSGSYIHYFHCLR (UniProt Q96JB5)  0.169
8. CCT6A_P40227_508_QLLHSCTVIATNILLVDEIMR (UniProt P40227)  0.13
9. CDC16_Q13042_455_AIGNEVTVDKWEPLLNNLGHVCR (UniProt Q13042)  0.108
10. CD44_P16070_77_ALSIGFETCR (UniProt P16070)  0.0973
11. CCT8_P50990_149_AHEILPNLVCCSAK (UniProt P50990)  0.0945
12. CENPF_P49454_1947_LEYFSCDHQELLQR (UniProt P49454)  0.0817
13. CCT7_Q99832_310_DMFCAGR (UniProt Q99832)  0.0711
14. CD40_P25942_116+119_GTSETDTICTCEEGWHCTSEACESCVLHR (UniProt P25942)  0.0635
15. CDC45_O75419_267_NEDEENTLSVDCTR (UniProt O75419)  0.0608
16. CENPF_P49454_752_CYQDLHAEYESLR (UniProt P49454)  0.0586
17. CDC42_P60953_157_YVECSALTQK (UniProt P60953)  0.047
18. CENPV_Q7Z7K6_216_AQHTFCK (UniProt Q7Z7K6)  0.0383
19. CEP250_Q9BV73_2348_CVAELQK (UniProt Q9BV73)  0.0351
20. CD46_P15529_157_GSVAIWSGKPPICEK (UniProt P15529)  0.025
21. CD70_P32970_151_LSFHQGCTIASQR (UniProt P32970)  -0.00783
22. CCT4_P50991_221_LGGTIDDCELVEGLVLTQK (UniProt P50991)  -0.0108
23. CCT8_P50990_187_LIAQACVSIFPDSGHFNVDNIR (UniProt P50990)  -0.0321
24. CENPF_P49454_752_CYQDLHAEYESLRDLLK (UniProt P49454)  -0.0479
25. CEP192_Q8TEP8_1562_APVEVAPCADVVTR (UniProt Q8TEP8)  -0.0557
26. CENPI_Q92674_332_EMSLSDCLNR (UniProt Q92674)  -0.0842
27. CDK5_Q00535_290_ISAEEALQHPYFSDFCPP (UniProt Q00535)  -0.0852
28. CDK5_Q00535_83_KLTLVFEFCDQDLKK (UniProt Q00535)  -0.0854
29. CDC16_Q13042_163_LDVYCFEAFDLLTSHHMLTAQEEK (UniProt Q13042)  -0.0968
30. CDK12_Q9NYV4_1009_CTAEQTLQSDFLK (UniProt Q9NYV4)  -0.0994
31. CEP63_Q96MT8_108_LHEELCILK (UniProt Q96MT8)  -0.131
32. CEP350_Q5VT06_1557_QESPSVPSCK (UniProt Q5VT06)  -0.158
33. CCT8_P50990_347_LTPPVLEEMGHCDSVYLSEVGDTQVVVFKHEK (UniProt P50990)  -0.162
34. CEP152_O94986_791_TLDCGSQTDQVTTSDVISK (UniProt O94986)  -0.209
35. CEP350_Q5VT06_2412_DSQSCR (UniProt Q5VT06)  -0.218
36. CERS5_Q8N5B7_369_SPCDSSSSNGANR (UniProt Q8N5B7)  -0.232
37. CD33_P20138_325_LHGPTETSSCSGAAPTVEMDEELHYASLNFHGMNPSK (UniProt P20138)  -0.271
